Assay [1] concerns the target T1, ZBTB24 (zinc finger- and BTB domain-containing 24), ectopically expressed (UniProt Q80X44).
T1 sequence: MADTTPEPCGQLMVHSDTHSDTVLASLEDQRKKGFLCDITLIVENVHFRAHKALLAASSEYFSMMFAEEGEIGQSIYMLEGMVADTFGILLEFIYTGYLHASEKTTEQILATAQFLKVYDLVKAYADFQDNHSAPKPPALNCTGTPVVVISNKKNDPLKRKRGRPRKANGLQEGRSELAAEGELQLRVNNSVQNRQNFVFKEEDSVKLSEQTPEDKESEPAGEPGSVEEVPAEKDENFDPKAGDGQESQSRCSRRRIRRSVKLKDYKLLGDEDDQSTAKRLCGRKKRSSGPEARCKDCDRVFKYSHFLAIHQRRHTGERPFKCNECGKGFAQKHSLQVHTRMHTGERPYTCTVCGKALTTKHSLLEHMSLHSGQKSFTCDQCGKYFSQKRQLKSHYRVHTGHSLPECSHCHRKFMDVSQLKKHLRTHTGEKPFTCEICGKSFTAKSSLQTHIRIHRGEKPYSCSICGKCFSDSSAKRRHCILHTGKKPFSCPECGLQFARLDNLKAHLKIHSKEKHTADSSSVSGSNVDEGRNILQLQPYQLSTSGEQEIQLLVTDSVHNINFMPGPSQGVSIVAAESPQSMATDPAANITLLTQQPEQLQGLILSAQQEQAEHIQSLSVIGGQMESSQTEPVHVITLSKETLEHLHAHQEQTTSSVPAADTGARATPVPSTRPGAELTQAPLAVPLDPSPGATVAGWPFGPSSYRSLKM
As to the kind of experiment: co-IP; reciprocal co-IP of ectopically expressed proteins in HEK293 cells.

Assay [2] deals with T2, ZBTB24, endogenous in mouse embryonic stem cells (mouse (endogenous in mESCs)) (UniProt Q80X44).
T2 sequence: T1 sequence
As to the kind of experiment: co-IP; reciprocal co-IP of endogenous proteins in mouse embryonic stem cells (mESCs).

Assay [3] addresses T3, CDCA7 (cell division cycle associated 7) (UniProt Q9D0M2).
T3 sequence: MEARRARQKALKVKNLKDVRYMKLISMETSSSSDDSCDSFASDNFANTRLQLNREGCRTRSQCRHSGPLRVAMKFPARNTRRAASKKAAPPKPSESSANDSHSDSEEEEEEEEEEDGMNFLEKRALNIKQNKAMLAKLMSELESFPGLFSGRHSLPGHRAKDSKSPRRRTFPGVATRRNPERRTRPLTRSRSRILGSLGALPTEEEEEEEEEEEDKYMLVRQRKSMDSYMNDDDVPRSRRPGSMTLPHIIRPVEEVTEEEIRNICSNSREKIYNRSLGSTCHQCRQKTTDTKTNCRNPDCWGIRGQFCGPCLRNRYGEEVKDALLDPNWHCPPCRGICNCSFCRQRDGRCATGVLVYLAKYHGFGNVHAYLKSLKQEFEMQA
As to the kind of experiment: co-IP; co-IP of CDCA7 (wild type and ICF3 substitutions) with HELLS; no figure cited, cells and constructs not told.

Results are given in words; binding and its absence hold for the method and conditions named. Binding seen in cells or lysates may run through a third protein. Some results given as binding are weak or reduced against the parent protein; the word gives no strength.

On to “DNMT3B (DNA methyltransferase 3B), ectopically expressed (from UniProt O88509 1-859) (enzyme)”, for which the binding result in assay [1] is reported as “no binding”.
“DNMT3B, endogenous in mouse embryonic stem cells (from UniProt O88509 1-859) (enzyme)”: the binding entry in assay [2] was “no binding”.

B1: HELLS (helicase, lymphoid-specific) (enzyme, UniProt Q60848 1-821)
chain: MAEQTEPAVITPAMLEEEEQLEAAGLEKERKMLEEAQKSWDRESTEIRYRRLQHLLEKSNIYSKFLLTKMEQQQLEEQKKKEKLEKKKRSLKLTEGKSLVDGNGEKPVMKKKRGREDESYNISEVMSKEEILSVAKKHKDNEDESSSTTSLCVEDIQKNKDSNSMIKDRLSQTVRQNSKFFFDPVRKCNGQPVPFQQPKHFTGGVMRWYQVEGMEWLRMLWENGINGILADEMGLGKTVQCIATIALMIQRGVPGPFLVCGPLSTLPNWMAEFKRFTPEIPTLLYHGTREDRRKLVKNIHKRQGTLQIHPVVVTSFEIAMRDQNALQHCYWKYLIVDEGHRIKNMKCRLIRELKRFNADNKLLLTGTPLQNNLSELWSLLNFLLPDVFDDLKSFESWFDITSLSETAEDIIAKEREQNVLHMLHQILTPFLLRRLKSDVALEVPPKREVVVYAPLCNKQEIFYTAIVNRTIANMFGSCEKETVELSPTGRPKRRSRKSINYSELDQFPSELEKLISQIQPEVNRERTVVEGNIPIESEVNLKLRNIMMLLRKCCNHPYMIEYPIDPVTQEFKIDEELVTNSGKFLILDRMLPELKKRGHKVLVFSQMTSMLDILMDYCHLRNFIFSRLDGSMSYSEREKNIYSFNTDPDVFLFLVSTRAGGLGINLTAADTVIIYDSDWNPQSDLQAQDRCHRIGQTKPVVVYRLVTANTIDQKIVERAAAKRKLEKLIIHKNHFKGGQSGLSQSKNFLDAKELMELLKSRDYEREVKGSREKVISDEDLELLLDRSDLIDQMKASRPIKGKTGIFKILENSEDSSAECLF
B1: the binding result in assay [3] is on record as “binds”.

The record behind these values is paper PMC7026229.
